Assay [1] concerns the target FLAG-tagged Stat5a and MYC-tagged Stat5a (full-length Stat5a in pCMV-3FLAG and pCMV-3MYC) (UniProt P42229). Nature of the assay: co-IP; PC-3 cells co-transfected with FLAG-Stat5a, MYC-Stat5a and PrlR; serum-starved 16 h, IST5, IST5-M or vehicle 2 h, Prl 10 nM 30 min; whole-cell lysates precipitated with anti-MYC mAb, blotted with anti-FLAG mAb.
In assay [2] the target is STAT5A-N642H-eYFP (constitutive activated Stat5 by N642H mutation) (UniProt P42229). Nature of the assay: native gel or EMSA; blue native PAGE (NativePAGE Bis-Tris 4-16%, 4 °C) of cleared lysates of transfected CWR22Rv1 cells; cells serum-starved 16 h, vanadate 1 mM 2 h, vehicle, IST5 or IST5-M (1 µM) 6 h, Prl 10 nM 1 h; monomer and dimer told apart by molecular weight through eYFP fluorescence in the gel. (A gel shift assay detects complexes by their altered migration in electrophoresis.)

Chains of the proteins cited; added tags and fusions are not shown. Lines headed by an entry give the natural chain unless they say otherwise; changes in a name come on top.
UniProt P42229: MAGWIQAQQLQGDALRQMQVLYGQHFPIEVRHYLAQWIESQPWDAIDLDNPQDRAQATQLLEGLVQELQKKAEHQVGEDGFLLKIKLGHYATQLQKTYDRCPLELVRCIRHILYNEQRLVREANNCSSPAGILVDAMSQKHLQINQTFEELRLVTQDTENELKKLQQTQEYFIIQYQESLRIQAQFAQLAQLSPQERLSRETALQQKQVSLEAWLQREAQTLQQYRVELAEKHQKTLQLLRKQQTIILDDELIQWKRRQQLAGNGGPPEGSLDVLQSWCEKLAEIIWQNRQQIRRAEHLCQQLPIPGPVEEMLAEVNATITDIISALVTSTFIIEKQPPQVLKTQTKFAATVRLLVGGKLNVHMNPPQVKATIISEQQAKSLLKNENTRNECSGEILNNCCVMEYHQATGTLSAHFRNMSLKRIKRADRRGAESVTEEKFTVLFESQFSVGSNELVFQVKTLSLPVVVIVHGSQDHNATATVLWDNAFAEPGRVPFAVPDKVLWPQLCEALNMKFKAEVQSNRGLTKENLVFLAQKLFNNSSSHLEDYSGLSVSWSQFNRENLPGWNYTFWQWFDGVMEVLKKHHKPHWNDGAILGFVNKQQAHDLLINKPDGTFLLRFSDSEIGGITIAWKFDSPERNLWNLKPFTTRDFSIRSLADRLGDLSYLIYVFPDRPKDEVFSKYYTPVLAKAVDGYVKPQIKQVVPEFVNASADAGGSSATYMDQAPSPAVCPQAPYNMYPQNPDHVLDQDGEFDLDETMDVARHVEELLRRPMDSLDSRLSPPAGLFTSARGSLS

The target of assay [3] is STAT5A-eYFP (Stat5 wild type) (UniProt P42229). The description is as above.

These are yes or no findings as the source states them, for the method shown. For part of these data: In cells and extracts the contact can be indirect. Some results given as binding are weak or reduced against the parent protein; the word gives no strength.

This note sets out measurements from article PMC7724566, “Prospects for Clinical Development of Stat5 Inhibitor IST5-002: High Transcriptomic Specificity in Prostate Cancer and Low Toxicity In Vivo” (Cancers, 2020).

Take “FLAG-tagged Stat5a and MYC-tagged Stat5a (full-length Stat5a in pCMV-3FLAG and pCMV-3MYC) (from UniProt P42229 1-794)”: the binding result in assay [1] is recorded as “binds”.

Turning to “STAT5A-N642H-eYFP (constitutive activated Stat5 by N642H mutation) (from UniProt P42229 1-794)”, in assay [2], the binding result is reported as “binds”.

For “STAT5A-eYFP (Stat5 wild type) (from UniProt P42229 1-794)”, in assay [3], the binding entry is reported as “binds”.
